In publication PMC5519952:
Construct, isoform or probe ends are uncertain for at least one entry. Where cells or extracts were used, other partners may take part.

Chains of the proteins cited; added tags and fusions are not shown. Residues count along the entry.
UniProt P16422, 24-314: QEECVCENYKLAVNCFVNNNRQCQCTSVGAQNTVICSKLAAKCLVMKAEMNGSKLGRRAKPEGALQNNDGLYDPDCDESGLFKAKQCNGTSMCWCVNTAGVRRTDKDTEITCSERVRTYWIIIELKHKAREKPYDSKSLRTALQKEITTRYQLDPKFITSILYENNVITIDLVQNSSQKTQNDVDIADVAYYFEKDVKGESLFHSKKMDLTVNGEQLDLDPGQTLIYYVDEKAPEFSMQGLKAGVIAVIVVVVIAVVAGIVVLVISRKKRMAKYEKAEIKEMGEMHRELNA

Key:
[1] = molecular target: EpCAM (epithelial cell adhesion molecule) (Homo sapiens (MCF-7 breast cancer cells)) (UniProt P16422); experiment: flow cytometry and confocal fluorescence on MCF-7 cells; details: 1 uM aptamer, EpCAM-negative Ramos cells no signal, signal lost after EpCAM siRNA; 30 min, 37 C; wash PBS pH 7.4 (136.7 mM NaCl, 2.7 mM KCl, 8.72 mM Na2HPO4); protein on the cell surface; label: FITC; single-stranded DNA
[2] = molecular target: EpCAM (epithelial cell adhesion molecule) (Homo sapiens (MCF-7 breast cancer cells)) (UniProt P16422); experiment: SERS (Raman) imaging on MCF-7 cells; details: 1 nM Au30 or Au40 probe with Au10 probe, ManNAz-labeled cells, Ramos very weak, signal lost after EpCAM siRNA; 3'-SH; 30 min, 37 C; wash PBS pH 7.4 (136.7 mM NaCl, 2.7 mM KCl, 8.72 mM Na2HPO4); protein on the cell surface; label: gold nanoparticle with PEG; single-stranded DNA

Sequence | binding result [1] | binding result [2]
CACTACAGAGGTTGCGTCTGTCCCACGTTGTCATGGGGGGTTGGCCTGAAAAAAAAAAAAAAA [FITC-labeled EpCAM aptamer] | binds | –
CACTACAGAGGTTGCGTCTGTCCCACGTTGTCATGGGGGGTTGGCCTGAAAAAAAAAAAAAAA [thiol EpCAM aptamer (AP) on AuNP (Au30/Au40 probe)] | – | binds
